# Results are given in words; binding and its absence hold for the method and conditions named. In cells and extracts the contact can be indirect. Some binding calls cover weakened binding; strength is not graded here.
# Chains of the proteins cited; added tags and fusions are not shown. Residues count along the entry.
# UniProt P48678, residues 1-647: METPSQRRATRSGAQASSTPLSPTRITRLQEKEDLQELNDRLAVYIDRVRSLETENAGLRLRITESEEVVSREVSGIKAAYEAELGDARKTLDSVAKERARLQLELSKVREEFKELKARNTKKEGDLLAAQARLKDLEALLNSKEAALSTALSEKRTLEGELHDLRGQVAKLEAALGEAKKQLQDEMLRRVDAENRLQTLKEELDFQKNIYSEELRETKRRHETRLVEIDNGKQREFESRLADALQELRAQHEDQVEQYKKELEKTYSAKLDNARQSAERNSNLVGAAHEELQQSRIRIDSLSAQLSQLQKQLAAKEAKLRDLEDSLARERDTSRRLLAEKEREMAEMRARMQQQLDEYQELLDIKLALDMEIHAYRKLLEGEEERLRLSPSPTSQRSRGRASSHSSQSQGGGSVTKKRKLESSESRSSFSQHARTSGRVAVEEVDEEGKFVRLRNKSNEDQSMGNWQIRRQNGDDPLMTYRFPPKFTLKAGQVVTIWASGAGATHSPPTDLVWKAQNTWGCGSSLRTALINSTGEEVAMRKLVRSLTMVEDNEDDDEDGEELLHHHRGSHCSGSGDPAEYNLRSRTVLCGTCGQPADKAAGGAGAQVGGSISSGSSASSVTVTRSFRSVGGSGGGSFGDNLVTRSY
# B1: barrier-to-autointegration factor (BAF) (protein, UniProt O54962 1-89)
# chain: MTTSQKHRDFVAEPMGEKPVGSLAGIGDVLSKRLEERGFDKAYVVLGQFLVLKKDEDLFREWLKDTCGANAKQSRDCFGCLREWCDAFL
# B2: LAP2α ΔN mutant (residues 186-693) (domain or fragment, UniProt Q61033 186-693)
# chain: DEGKKKEHKKVKSARDCVPFSELASTPSGAFFQGISFPEISTRPPLGRTELQAAKKVQTTKRDPPRETCTDTALPGKGQTHKLAPGRSLFIPSESSYDRCVEKSSSPSSQREFAARLVSAAASPSLIRETTTTYSKDIVENICRGGKSRAQPLRAEEPGVSDQSVFSSEREVLQESERSQVISPPLAQAIRDYVNSLLVQGGVGSLPGTSDSVPTLDVENICKRLSQSSYQDSESLSPPRKVPRLSEKPARGGDSGSCVAFQNTPGSEHRSSFAKSVVSHSLTTLGVEVSKPPPQHDKIEASEPSFPLHESILKVVEEEWQQIDRQLPSVACRYPVSSIEAARILSVPKVDDEILGFISEATPRAATQASSTESCDKHLDLALCRSYEAAASALQIAAHTAFVAKSLQADISQAAQIINSDPSDAQQALRILNRTYDAASYLCDAAFDEVRMSACAMGSSTMGRRYLWLKDCKISPASKNKLTVAPFKGGTLFGGEVHKVIKKRGNKQ
# B3: LAP2α ΔC mutant (residues 1-414) (domain or fragment, UniProt Q61033 1-414)
# chain: MPEFLEDPSVLTKDKLKSELVANNVTLPAGEQRKDVYVQLYLQHLTARNRPPLAAGANSKGPPDFSSDEEREPTPVLGSGASVGRGRGAVGRKATKKTDKPRLEDKDDLDVTELSNEELLDQLVRYGVNPGPIVGTTRKLYEKKLLKLREQGTESRSSTPLPTVSSSAENTRQNGSNDSDRYSDNDEGKKKEHKKVKSARDCVPFSELASTPSGAFFQGISFPEISTRPPLGRTELQAAKKVQTTKRDPPRETCTDTALPGKGQTHKLAPGRSLFIPSESSYDRCVEKSSSPSSQREFAARLVSAAASPSLIRETTTTYSKDIVENICRGGKSRAQPLRAEEPGVSDQSVFSSEREVLQESERSQVISPPLAQAIRDYVNSLLVQGGVGSLPGTSDSVPTLDVENICKRLSQSS
# B4: LAP2α C-terminal mutant (residues 414-693) (domain or fragment, UniProt Q61033 414-693)
# chain: SYQDSESLSPPRKVPRLSEKPARGGDSGSCVAFQNTPGSEHRSSFAKSVVSHSLTTLGVEVSKPPPQHDKIEASEPSFPLHESILKVVEEEWQQIDRQLPSVACRYPVSSIEAARILSVPKVDDEILGFISEATPRAATQASSTESCDKHLDLALCRSYEAAASALQIAAHTAFVAKSLQADISQAAQIINSDPSDAQQALRILNRTYDAASYLCDAAFDEVRMSACAMGSSTMGRRYLWLKDCKISPASKNKLTVAPFKGGTLFGGEVHKVIKKRGNKQ
# Biological target: lamin A/C (mouse (endogenous in mouse dermal fibroblasts)) (UniProt P48678)
# Experiment: co-IP; endogenous lamin A/C immunoprecipitated with the E1 anti-lamin A/C antibody from the soluble fraction of mouse dermal fibroblasts (IP buffer: 20 mM Tris-HCl pH 7.5, 150 mM NaCl, 2 mM EGTA, 2 mM MgCl2, 0.5% NP-40, 1 mM DTT, benzonase), western blot; Figure 4D: untransfected or control siRNA cells; Figure 5D: cells untreated or treated with rapamycin
row,Binder,binding
1,B1,binds
2,B2,no binding
3,B3,no binding
4,B4,no binding

# From publication PMC11417337
